Test results from article PMC6751184, “Heme and hemoglobin utilization by Mycobacterium tuberculosis” (Nature Communications, 2019).
Results are given in words; binding and its absence hold for the method and conditions named. Where a sequence is shown, tags or fusion partners need not be part of it.

Molecular target: DppA of Mycobacterium tuberculosis (Rv3666c), lacking the predicted signal peptide (M. tuberculosis) (UniProt A5U8Y9)
Experiment: SEC; both purified

B1: DppA of Mycobacterium tuberculosis (Rv3666c), lacking the predicted signal peptide (protein, UniProt A5U8Y9 26-541)
chain: GGGVLSPDVVLVNGGEPPNPLIPTGTNDSNGGRIIDRLFAGLMSYDAVGKPSLEVAQSIESADNVNYRITVKPGWKFTDGSPVTAHSFVDAWNYGALSTNAQLQQHFFSPIEGFDDVAGAPGDKSRTTMSGLRVVNDLEFTVRLKAPTIDFTLRLGHSSFYPLPDSAFRDMAAFGRNPIGNGPYKLADGPAGPAWEHNVRIDLVPNPDYHGNRKPRNKGLRFEFYANLDTAYADLLSGNLDVLDTIPPSALTVYQRDLGDHATSGPAAINQTLDTPLRLPHFGGEEGRLRRLALSAAINRPQICQQIFAGTRSPARDFTARSLPGFDPNLPGNEVLDYDPQRARRLWAQADAISPWSGRYAIAYNADAGHRDWVDAVANSIKNVLGIDAVAAPQPTFAGFRTQITNRAIDSAFRAGWRGDYPSMIEFLAPLFTAGAGSNDVGYINPEFDAALAAAEAAPTLTESHELVNDAQRILFHDMPVVPLWDYISVVGWSSQVSNVTVTWNGLPDYENIVKA
- binding: no binding
